B1: human tRNA-Pro; a variant is named by its letters at N, in order (parent)
chain: GGCTCGTTGGTCTAGNGGTATGATTCTCGCTTAGGGTGCGAGAGGTCCCGGGTTCNNATCCCGGACGAGCCC

Data set [1] covers variants of B1. As to the kind of experiment: tRNA Pol-III promoter activity, log2 (circRNA frequency / plasmid DNA frequency) (log2 ratio); higher = stronger promoter activity. The following applies: HEK293T; construct: no Pol-II promoter ((-)CMV library).
The variants in data set [2] derive from B1. As to the kind of experiment: tRNA 3' processing efficiency (processed reads / all reads, maximum-likelihood estimate) (fraction); higher = more efficient 3' processing. The following applies: HEK293T; construct: no Pol-II promoter ((-)CMV library).
Data set [3] covers variants of B1. As to the kind of experiment: tRNA 5' processing efficiency (processed reads / all reads, maximum-likelihood estimate) (fraction); higher = more efficient 5' processing. The settings on record: HEK293T; construct: CMV Pol-II promoter ((+)CMV library, decapped).

This is an account of results in the supplement of paper PMC6445147.

Single values of this data set are uncertain.

As for GGCTCGTTGGTCTTGGGGAATGATTCTCGCTTAGGGTGCGAGAGGTCCCGGGATCAAATCCCGGACGAGCCC, the “tRNA Pol-III promoter activity (log2)” value in data set [1] was found to be 4.3. Also, in data set [2], the “tRNA 3' processing efficiency” value is 0.36.

As for GGCTCGTTGGTCTTGGGGTATGATTCTCGCTTAGGGTGCGAGAGGTCCCGGGCTCAAATCCCGGACGAGCCC, the “tRNA Pol-III promoter activity (log2)” value in data set [1] was 1.11. Moreover, in data set [2], the “tRNA 3' processing efficiency” value is 0.2.

On to GGCTCGTTGGTCTTGGGGTATGATTCTCGCTTAGGGTGCGAGAGGTCCCGGGGTCAAATCCCGGACGAGCCC, for which the “tRNA Pol-III promoter activity (log2)” value in data set [1] is 1.06. In data set [2], the “tRNA 3' processing efficiency” value was 0.31.

On to GGCTCGTTGGTCTTGGGGTATGATTCTCGCTTAGGGTGCGAGAGGTCCCGGGATCAAATCCCGGACGAGCCC, for which, in data set [1], the “tRNA Pol-III promoter activity (log2)” value turned out to be 2.48. For the same variant, the “tRNA 3' processing efficiency” value in data set [2] was 0.52.

In the case of GGCTCGTTGGTCTTGCGGTATGATTCTCGCTTAGGGTGCGAGAGGTCCCGGGATCAAATCCCGGACGAGCCC, the “tRNA Pol-III promoter activity (log2)” value in data set [1] came to 5.31. Moreover, the “tRNA 3' processing efficiency” value in data set [2] was 0.14.

Take GGCTCGTTGGTCTTGCGGTATGATTCTCGCTTAGGGTGCGAGAGGTCCCGGGGTCAAATCCCGGACGAGCCC: in data set [1], the “tRNA Pol-III promoter activity (log2)” value was 0.559. Also, in data set [2], the “tRNA 3' processing efficiency” value is 0.33.

On to GGCTCGTTGGTCTTGGGTTGTGATTCTCGCTTAGGGTGCGAGAGGTCCCGGGATCAAATCCCGGACGAGCCC, for which the “tRNA Pol-III promoter activity (log2)” value in data set [1] came to 3.93. The “tRNA 3' processing efficiency” value in data set [2] is 0.25.

As to GGCTCGTTGGTCTTGCGGGATGATTCTCGCTTAGGGTGCGAGAGGTCCCGGGTTCAAGTCCCGGACGAGCCC, in data set [1], the “tRNA Pol-III promoter activity (log2)” value came to 5.2. Moreover, the “tRNA 3' processing efficiency” value in data set [2] was 0.56.

In the case of GGCTCGTTGGTCTTGGGGCATGATTCTCGCTTAGGGTGCGAGAGGTCCCGGGTTCAACTCCCGGACGAGCCC, the “tRNA Pol-III promoter activity (log2)” value in data set [1] was 5.36. Also, the “tRNA 3' processing efficiency” value in data set [2] is 0.2.

Turning to GGCTCGTTGGTCTTGGGGTATGATTCTCGCTTAGGGTGCGAGAGGTCCCGGGGTCAAAGCCCGGACGAGCCC, in data set [1], the “tRNA Pol-III promoter activity (log2)” value came out at 3.34. Moreover, the “tRNA 3' processing efficiency” value in data set [2] is 0.33.

In the case of GGCTCGTTGGTCTTGGGGTATGATTCTCGCTTAGGGTGCGAGAGGTCCCGGGATCAAACCCCGGACGAGCCC, the “tRNA Pol-III promoter activity (log2)” value in data set [1] is 3.03. The “tRNA 3' processing efficiency” value in data set [2] was 0.25.

With GGCTCGTTGGTCTTGGGGTATGATTCTCGCTTAGGGTGCGAGAGGTCCCGGGATCAAAGCCCGGACGAGCCC, the “tRNA Pol-III promoter activity (log2)” value in data set [1] was 4.16. In addition, the “tRNA 3' processing efficiency” value in data set [2] is 0.29.

In the case of GGCTCGTTGGTCTTGGGGCATGATTCTCGCTTAGGGTGCGAGAGGTCCCGGGTTCAAAGCCCGGACGAGCCC, in data set [1], the “tRNA Pol-III promoter activity (log2)” value is 6.25. Also, the “tRNA 3' processing efficiency” value in data set [2] is 0.1.

In the case of GGCTCGTTGGTCTTGGGGCATGATTCTCGCTTAGGGTGCGAGAGGTCCCGGGTTCAAACCCCGGACGAGCCC, in data set [1], the “tRNA Pol-III promoter activity (log2)” value came to 3.45. Further, in data set [2], the “tRNA 3' processing efficiency” value is 0.33.

Take GGCTCGTTGGTCTTGAGGTATGATTCTCGCTTAGGGTGCGAGAGGTCCCGGGTTCAAAACCCGGACGAGCCC: the “tRNA Pol-III promoter activity (log2)” value in data set [1] is 4.03. The “tRNA 3' processing efficiency” value in data set [2] was 0.4.

For GGCTCGTTGGTCTTGTGGTATGATTCTCGCTTAGGGTGCGAGAGGTCCCGGGTTCAAAACCCGGACGAGCCC, the “tRNA Pol-III promoter activity (log2)” value in data set [1] was found to be 3.41. The “tRNA 3' processing efficiency” value in data set [2] was 0.57.

GGCTCGTTGGTCTTGGGGGATGATTCTCGCTTAGGGTGCGAGAGGTCCCGGGTTCAAAGCCCGGACGAGCCC: in data set [1], the “tRNA Pol-III promoter activity (log2)” value was 5.16. The “tRNA 3' processing efficiency” value in data set [2] was 0.29.

For GGCTCGTTGGTCTTGGGGGATGATTCTCGCTTAGGGTGCGAGAGGTCCCGGGTTCAAACCCCGGACGAGCCC, the “tRNA Pol-III promoter activity (log2)” value in data set [1] was found to be 8.68. The “tRNA 3' processing efficiency” value in data set [2] is 0.56.

Take GGCTCGTTGGTCTTGGGGGATGATTCTCGCTTAGGGTGCGAGAGGTCCCGGGTTCAATTCCCGGACGAGCCC: the “tRNA Pol-III promoter activity (log2)” value in data set [1] is 3.13. The “tRNA 3' processing efficiency” value in data set [2] is 0.25.

With GGCTCGTTGGTCTTGGGGGATGATTCTCGCTTAGGGTGCGAGAGGTCCCGGGTTCAAGTCCCGGACGAGCCC, the “tRNA Pol-III promoter activity (log2)” value in data set [1] came to 3.33. For the same variant, the “tRNA 3' processing efficiency” value in data set [2] was 0.22.

With GGCTCGTTGGTCTTGGGGTATGATTCTCGCTTAGGGTGCGAGAGGTCCCAGGTTCAAATCCCGGACGAGCCC, in data set [1], the “tRNA Pol-III promoter activity (log2)” value was 2.77. Besides, the “tRNA 3' processing efficiency” value in data set [2] is 0.25.

Take GGCTCGTTGGTCTTGAGGGATGATTCTCGCTTAGGGTGCGAGAGGTCCCGGGTTCAATTCCCGGACGAGCCC: the “tRNA Pol-III promoter activity (log2)” value in data set [1] worked out at 5.53. Moreover, the “tRNA 3' processing efficiency” value in data set [2] was 0.5.

Turning to GGCTCGTTGGTCTTGGGGAATGATTCTCGCTTAGGGTGCGAGAGGTCCCGGGTTCAAATCCCGGACGAGCCC, the “tRNA Pol-III promoter activity (log2)” value in data set [1] is -0.631. In addition, in data set [2], the “tRNA 3' processing efficiency” value is 0.33.

Regarding GGCTCGTTGGTCTTGGGGTATGATTCTCGCTTAGGGTGCGAGAGGTCCCGGGTACAAAACCCGGACGAGCCC, in data set [1], the “tRNA Pol-III promoter activity (log2)” value was 4.44. Moreover, in data set [2], the “tRNA 3' processing efficiency” value is 0.33.

For the variant GGCTCGTTGGTCTTGGGGCATGATTCTCGCTTAGGGTGCGAGAGGTCCCGGGTCCAAATCCCGGACGAGCCC, the “tRNA Pol-III promoter activity (log2)” value in data set [1] came out at 3.94. The “tRNA 3' processing efficiency” value in data set [2] was 0.5.

For GGCTCGTTGGTCTTGTGGTATGATTCTCGCTTAGGGTGCGAGAGGTCCCGGGATCAAATCCCGGACGAGCCC, in data set [1], the “tRNA Pol-III promoter activity (log2)” value was found to be 2.31. Moreover, in data set [2], the “tRNA 3' processing efficiency” value is 0.22.

For GGCTCGTTGGTCTTGTGGTATGATTCTCGCTTAGGGTGCGAGAGGTCCCGGGCTCAAATCCCGGACGAGCCC, the “tRNA Pol-III promoter activity (log2)” value in data set [1] worked out at 3.93. In data set [2], the “tRNA 3' processing efficiency” value is 0.1.

Consider GGCTCGTTGGTCTTGGGGAATGATTCTCGCTTAGGGTGCGAGAGGTCCCGGGTTCAAGTCCCGGACGAGCCC, for which the “tRNA Pol-III promoter activity (log2)” value in data set [1] came to 4.59. The “tRNA 3' processing efficiency” value in data set [2] is 0.33.

Take GGCTCGTTGGTCTTGGGGAATGATTCTCGCTTAGGGTGCGAGAGGTCCCGGGTTCAACTCCCGGACGAGCCC: in data set [1], the “tRNA Pol-III promoter activity (log2)” value amounted to 3.3. Besides, the “tRNA 3' processing efficiency” value in data set [2] was 0.17.

Consider GGCTCGTTGGTCTTGAGGTATGATTCTCGCTTAGGGTGCGAGAGGTCCCGGGGTCAAATCCCGGACGAGCCC, for which the “tRNA Pol-III promoter activity (log2)” value in data set [1] is 4.51. Besides, the “tRNA 3' processing efficiency” value in data set [2] is 0.33. Moreover, the “tRNA 5' processing efficiency” value in data set [3] is 0.4.

For the variant GGCTCGTTGGTCTTGGGGAATGATTCTCGCTTAGGGTGCGAGAGGTCCCGGGTTCAAACCCCGGACGAGCCC, the “tRNA Pol-III promoter activity (log2)” value in data set [1] was found to be 6.26. In addition, in data set [2], the “tRNA 3' processing efficiency” value was 0.2.

Consider GGCTCGTTGGTCTTGCGGGATGATTCTCGCTTAGGGTGCGAGAGGTCCCGGGTTCAAATCCCGGACGAGCCC, for which the “tRNA Pol-III promoter activity (log2)” value in data set [1] turned out to be 3.68. The “tRNA 3' processing efficiency” value in data set [2] is 0.15.

As for GGCTCGTTGGTCTTGGGGTATGATTCTCGCTTAGGGTGCGAGAGGTCCCGGGCTCAAAACCCGGACGAGCCC, the “tRNA Pol-III promoter activity (log2)” value in data set [1] amounted to 5.49. Besides, in data set [2], the “tRNA 3' processing efficiency” value was 0.73.

GGCTCGTTGGTCTTGGGGAATGATTCTCGCTTAGGGTGCGAGAGGTCCCGGGTTCAATACCCGGACGAGCCC: in data set [1], the “tRNA Pol-III promoter activity (log2)” value was 5.93. In addition, the “tRNA 3' processing efficiency” value in data set [2] was 0.25.

On to GGCTCGTTGGTCTTGGGGAATGATTCTCGCTTAGGGTGCGAGAGGTCCCGGGTTCAATGCCCGGACGAGCCC, for which the “tRNA Pol-III promoter activity (log2)” value in data set [1] came out at 4.26. In data set [2], the “tRNA 3' processing efficiency” value is 0.2.

GGCTCGTTGGTCTTGAGGCATGATTCTCGCTTAGGGTGCGAGAGGTCCCGGGTTCAAATCCCGGACGAGCCC: in data set [1], the “tRNA Pol-III promoter activity (log2)” value was found to be 3.13. Moreover, the “tRNA 3' processing efficiency” value in data set [2] was 0.62.

Consider GGCTCGTTGGTCTTGCGGTATGATTCTCGCTTAGGGTGCGAGAGGTCCCGGGTTCAAAACCCGGACGAGCCC, for which the “tRNA Pol-III promoter activity (log2)” value in data set [1] came to 4.53. Moreover, in data set [2], the “tRNA 3' processing efficiency” value is 0.67.
